Experimental data published in article PMC7311171 (2020).

Columns and labels:
[1] = molecular target: BBS7, subunit of the bovine BBSome (bovine (endogenous in retina)); assay: cryo-EM structure; full-length ARL6 incubated with GTP (1:20) and added to purified BBSome at a molar ratio of 5:1, on ice; map at 4.0 Å; both purified
[2] = molecular target: BBS1, subunit of the bovine BBSome (bovine (endogenous in retina)); assay: as above
[3] = molecular target: BBS1, subunit of the bovine BBSome (bovine (endogenous in retina)); assay: cryo-EM structure; BBSome alone, purified from bovine retina, 0.4–0.6 mg/mL; map at 3.4 Å; both purified

- binding [1]: binds
- binding [2]: binds
B1: ARL6^GTP (full-length ARL6 incubated with GTP) (protein, UniProt Q0IIM2 1-186)
chain: MGLLDRLSGLLGLKKKEVHVLCLGLDNSGKTTIINKLKPSNAQSQDIVPTIGFSIQKFKSSSLSFTVFDMSGQGRYRNLWEHYYKEGQAIIFVIDSSDKLRMVVAKEELRTLLNHPDIKHRRIPILFFANKMDLRDALTSVKVSQLLCLEDIKDKPWHICASDAIKGEGLQEGVDWLQDQIQSVKT

- binding [3]: binds
B2: BBS4, subunit of the bovine BBSome (protein, UniProt Q1JQ97 1-519)
chain: MAEEKLSARTQLPVSAESQKPVLKKAPEFPILEKQNWLIHLYYIQKDYEACKAVIKEQLQETHGLCEYAIYVQALIFRLEGNIQESLRLFQMCAFLSPQCADNLKQVARSLFLLGKHKAAIEVYNEAAKLNQKDWEICHNLGVCYIYLKQFDKAQDQLHNALHLNRHDLTYIMLGKIFLLKGDLDKAIEIYKKAVEFSPENTELLTTLGLLYLQLGIYQKAFEHLGNTLTYDPTNYKAILAAGSMMQTHGDFDVALTKYKVVACAVIESPPLWNNIGMCFFGKKKYVAAISCLKRANYLAPLDWKILYNLGLVHLTMQQYASAFHFLSAAINFQPKMGELYMLLAVALTNLEDSENAKRAYEEAVRLDKCNPLVNLNYAVLLYNQGEKRDALAQYQEMEKKVNLLKYSSSLEFDPEMVEVAQKLGAALQVGEALVWTKPVKDPKSKHQTASTSKAAGFQQPLGSNQALGQAMSSAATCRKLSSGAGGTSQLTKPPSLPLEPEPTVEAQPTEASAQTREK

Results are given in words; binding and its absence hold for the method and conditions named. A result given as binding can be weak or reduced; the word gives no strength. One block for each binder: values may come before it.
